# Test results: patent publication US6903203B2, “Monoclonal antibody to CEA, conjugates comprising said antibody and their therapeutic use” (AstraZeneca UK Ltd., priority 1996, dated 2005)
# Some of these results come from one statement about several compounds together.
# B1: 806.077 antibody: novel murine anti-CEA monoclonal antibody from hybridoma 806.077, ECACC deposit no. 96022936 (antibody, V domains shown)
# VH: EVQLQQSGAELVRSGASVKLSCTASGFNIKDNYMHWVKQRPEQGLEWIAWIDPENGDTEYAPKFRGKATLTADSSSNTAYLHLSSLTSEDTAVYYCHVLIYAGYLAMDYWGQGTSVAVSS
# VL: DIELTQSPAIMSASPGEKVTITCSASSSVTYMHWFQQKPGTSPKLWIYSTSNLASGVPARFSGSGSGTSYSLTISRMEAEDAATYYCQQRSTYPLTFGAGTKLELKRA
# System: Lung (NCA reactivity)
# Test: Three-stage indirect immunohistology on frozen sections, normal lung
# Format: binding, human
# Conditions: normal lung (n=14), score seen in 4/14 tissues; 2 μg/ml
# Procedure: To assess selectivity, many human normal and tumour tissues have been screened for reactivity with the antibody 806.077, using sensitive three-stage indirect immunohistology on acetone-fixed, frozen cryostat sections.
# Immunohistology was carried out on sections of human tissue obtained either at resection surgery or at post mortem. To preserve optimal morphology and antigenicity, tissues were obtained as fresh as possible, cut into small pieces (about 0.5 cm^3) and flash frozen in liquid nitrogen prior to storage at −80° C. Sections of tissue (6μ) were cut on a cryostat, mounted on polylysine coated slides (e.g. blue TECHMATE™ slides, Dako) and fixed in ice-cold acetone for 2 minutes before being wrapped in foil and stored at −80° C.
# Slides were allowed to defrost at room temperature before being unwrapped from the foil immediately prior to use. […] Louis, U.S.A., Cat. No. M 9269) at 2 μg/ml in TBS, or relevant positive control such as LP34 (Dako). All subsequent incubations were carried out at room temperature for 30 minutes in a humidified chamber: all wash steps were in TBS with 2 changes. After incubation, the slides were washed and 100 μl of second antibody reagent, comprising 1/50 rabbit anti-mouse immunoglobulins conjugated to horse radish peroxidase (Dako Patts) and ⅕ normal human serum (Sigma) in TBS was added to each section.
# The slides were again incubated and washed in TBS. […]
molecule,measurement,value
B1,degree of binding (staining score),+ (+ (weak)=antibody binding to 25%-50% tumour cells)
